Test results reported in patent publication US20180195077.
The exact form of at least one protein or probe is not confirmed. For some assays here: A weaker result is weaker than the reference pair of the same experiment. For some assays here: Results from cells or extracts need not show a direct contact. For some assays here: A negative result means that nothing was seen under these conditions.

Sequences of proteins named here, by UniProt entry; tags and fusion partners are left off. A change or cut given only in a name is not applied to a line headed by its entry.
UniProt Q8NE71: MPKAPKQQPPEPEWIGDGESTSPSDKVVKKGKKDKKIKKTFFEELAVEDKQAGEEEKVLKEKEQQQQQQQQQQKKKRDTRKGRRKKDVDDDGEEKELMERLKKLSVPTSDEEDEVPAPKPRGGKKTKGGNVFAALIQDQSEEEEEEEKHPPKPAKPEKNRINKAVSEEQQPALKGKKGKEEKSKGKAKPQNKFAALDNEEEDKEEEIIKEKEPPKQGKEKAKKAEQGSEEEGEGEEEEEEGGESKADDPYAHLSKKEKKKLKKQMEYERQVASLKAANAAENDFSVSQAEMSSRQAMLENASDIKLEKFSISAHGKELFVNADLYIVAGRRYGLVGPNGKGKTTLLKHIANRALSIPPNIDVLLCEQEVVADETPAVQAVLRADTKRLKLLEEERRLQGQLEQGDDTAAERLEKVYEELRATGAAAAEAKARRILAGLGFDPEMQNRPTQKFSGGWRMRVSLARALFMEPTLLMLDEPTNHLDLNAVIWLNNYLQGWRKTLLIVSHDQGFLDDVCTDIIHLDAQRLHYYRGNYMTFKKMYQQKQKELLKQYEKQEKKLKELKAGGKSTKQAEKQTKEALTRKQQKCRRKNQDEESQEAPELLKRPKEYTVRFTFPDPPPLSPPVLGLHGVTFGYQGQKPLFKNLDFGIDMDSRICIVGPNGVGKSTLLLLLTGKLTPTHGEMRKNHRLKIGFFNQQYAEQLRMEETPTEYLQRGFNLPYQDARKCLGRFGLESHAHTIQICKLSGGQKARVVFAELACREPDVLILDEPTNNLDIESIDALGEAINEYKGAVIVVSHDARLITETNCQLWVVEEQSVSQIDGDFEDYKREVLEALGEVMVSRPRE

Tests used:
[1] = system: eIF3 complex (13 subunits a-m); experiment: binding assay; conditions: m6A at the single A [4 (m6A)], UV crosslinking, purified native protein, protein details: native complex purified per Pisarev et al. 2007, label: 32P-CTP, letters built from the parent sequence and the stated change
[2] = system: eIF3 complex (immunoprecipitated with anti-eIF3a or anti-eIF3b) (Homo sapiens); experiment: pull-down; conditions: m6A at the single A [4 (m6A)]; protein in an extract; label: 32P-CTP; letters built from the parent sequence and the stated change
[3] = biological target: ABCF1 (Homo sapiens) (UniProt Q8NE71); experiment: pull-down; conditions: m6A at the single A [4 (m6A)]; protein in an extract; label: 32P-CTP; letters built from the parent sequence and the stated change
[4] = significantly reduced versus GGAC context, variant of GGAC m6A probe

GGCAGUUUUUUUUUUUUUUU [GCAG m6A probe]: binds more weakly [1, 4].
GGGACUUUUUUUUUUUUUU [GGAC m6A probe]: binds [2]; no binding [3]; binds ([1]; strongly increased over A probe, bands 60-160 kDa, poly-U competitor, 10 mM HEPES pH 7.4, 140 mM KCl, 1 mM MgCl2, 25 C).
GGUACUUUUUUUUUUUUUU [GUAC m6A probe]: binds more weakly [1, 4].
